Library screening results

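Viability assay of Plasmodium falciparum sporozoites; the read-out is not stated. The concentration is filed as 10 mM, unlikely as a test dose, so the dose is not known. Direction is inferred from retests: higher values go with lower viability. Strong results were mostly tested again. Of about 34,000 compounds tested this way, about 280 (0.84%) reached 50% or more in at least one test.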

Values are the deposited “Percent Effect”, in %. The record does not define 0% and 100%; most values in the screen are far below 50% and negative numbers occur (in some assays of this library far below -100). Compounds were drawn at random from those tested, without regard to their results. Two or more numbers in one place are separate tests of the same structure; such repeats can differ widely.

For CN(C)c1ccc(C(=O)NCC2(c3ccccc3)CCOCC2)cc1 the result was -5.418%.
For [H][C@@]12CCN(CC3CCOCC3)[C@@]1([H])CCN2C(=O)c1ccc(C)nc1 the result was -1.128%.
For COc1ccc(C2CCCN2C(=O)c2ccc(=O)n(C)c2)cc1OC (stereo not shown) the result was -14.32%.
For Cc1cccc(CN(Cc2cccnc2)C2CC(C)(C)NC(C)(C)C2)n1.O=C(O)CC(O)(CC(=O)O)C(=O)O the result was -2.51%.
For Cc1nccn1C1CCCN(C(=O)COCC2CC2)C1 (stereo not shown) the result was 5.811%.
For CC(C)c1cc(NC(=O)c2cccnc2)[nH]n1 the result was 5.856% and -41.23% and -61.59%.
For COC[C@]1(O)CCN(C2CCN(c3ccc(F)c(F)c3)CC2)CC1(C)C the result was -10.59% and -9.845%.
For Cc1cccc(C2(C(=O)NCC3CCN(CC(F)(F)F)C3)CCC2)c1 (stereo not shown) the result was 5.72%.
For Cc1nc(-c2ccoc2)n(CC(=O)N(C)CC(C)C)c1C the result was -1.104%.
For [H][C@@]12OCCN(S(=O)(=O)C3CC3)[C@@]1([H])CC[C@H]2OC the result was 3.035%.
For O=CO.c1cc2nccc(CC3CCCN(C4CCOCC4)CC3)c2cn1 (stereo not shown) the result was 1.399%.
For [H][C@@]12CN(Cc3ccoc3)CCO[C@]1([H])CN(C(=O)CC1CCCC1)C2 the result was 4.253%.
For CN(C)CC(=O)N1CCC2(CC1)CN(Cc1ccccc1)C2 the result was 3.415%.
For CNC(=O)c1cccc(CC2COCCN(Cc3ccc(C)o3)C2)n1 (stereo not shown) the result was 5.682%.
For Nc1cc(-c2c[nH]nc2C2CCN(C(=O)C3CCCC3)C2)ccn1 (stereo not shown) the result was 6.481%.
For O=C(NCCOc1cccc(Cl)c1)C1CC(=O)N(CC2CC2)C1 (stereo not shown) the result was 13.61%.
For O=C(O)C(F)(F)F.c1cnc(N2CC[C@@H](OCC3CC3)[C@@H]2Cc2cccnc2)nc1 the result was 12.41%.
For Cc1cnn(CC(C)NCc2csc(-c3cnn(C)c3)n2)c1 (stereo not shown) the result was -30.56% and -36.93% and -1.671%.
For Cn1cc(C(=O)NCc2ccc(N3CCCC3)nc2)ccc1=O the result was 6.572%.
For COCC1CC2(CCN(C(=O)c3ccco3)CC2)CN1C(C)C.O=C(O)C(F)(F)F (stereo not shown) the result was -2.417%.
For [H][C@@]12COCC[C@]1([H])C[C@H](N(CC(=O)NC)C(=O)c1ccccc1)C2 the result was -4.689%.
For COc1cc(CN(C)C(=O)NCc2cccc3c2OCO3)ccc1SC the result was -2.722%.
For COCc1nc2cc(NCc3sc(C)nc3C)ccc2o1 the result was 17.01%.
For Cc1ccccc1C1CCN(CCn2cc(-c3nccs3)nn2)C1 (stereo not shown) the result was 42.35% and 39.01%.
For O=C(O)C(F)(F)F.[H][C@@]12CCN(c3ncc(F)cn3)C[C@]1([H])O[C@@H](C(=O)N1CCN(C)CC1)C2 the result was 4.221%.
For CCC(=O)N1CCC(c2nc(N3CCCCC3)ncc2S(C)(=O)=O)CC1 the result was -0.4439%.
For O=C(Nc1nc2c(s1)CN(S(=O)(=O)C1CC1)CC2)c1ccccn1 the result was 18.7% and 5.476%.
For CCn1cc(NC(=O)NCCc2ccc3c(c2)OCCO3)cn1 the result was -0.8103%.
For CNc1cc(N2CCC(O)(CNC(=O)c3ccc(C)nc3)C2)ncn1 (stereo not shown) the result was -2.813%.
For Cc1cc(C2CCCN(C(=O)Cc3csc(C(C)C)n3)C2)n[nH]1 (stereo not shown) the result was -4.2%.
For CCOCCN1CCC(c2cncc(C)n2)CC1 the result was 2.525%.
For CCn1c(C)nnc1CN(C)C1CCN(Cc2nnc(C3CC3)o2)C1 (stereo not shown) the result was 7.461%.
For Cc1nc(C2CCCNC2)nc2c1CCCN2Cc1ccccn1.Cl.Cl (stereo not shown) the result was 4.908%.
For CN(Cc1nc(N)c2ccccc2n1)CC1CCCN1c1cccnn1 (stereo not shown) the result was 13.41% and -2.174% and -0.4074%.
For O=C(O)C(F)(F)F.[H][C@@]12COC[C@]1(CNC(=O)CC1CC1)CN(c1ncc(F)cn1)C2 the result was 6.039%.
For Cn1cc(CN2CCc3onc(C(=O)N4CCCC4)c3C2)cn1.O=C(O)C(F)(F)F the result was 1.113%.
For Cc1nc(CCC(N)=O)cc(C2CCCN2S(C)(=O)=O)n1 (stereo not shown) the result was 4.312%.
For Cc1nccn1CCCn1cncc1-c1ccc2c(c1)CC(C)N2C.Cl (stereo not shown) the result was 10.53%.
For CC(=O)N1CCN(C(=O)CN2CCCC2Cn2nc(C)cc2C)CC1 (stereo not shown) the result was 11.08%.
For Cc1nnc(CN2CCCC(c3cc(C(N)=O)[nH]n3)C2)o1 (stereo not shown) the result was -3.04%.
For CCc1nc(C2CCCN(c3nccc(N4CCCC4)n3)C2)no1 (stereo not shown) the result was -7.828%.
For Cc1cccc(CN2C(=O)CCC23CCN(Cc2nccn2C)CC3)n1 the result was 23.1%.
For Cl.O=C(NCC(F)(F)F)C1=NOC2(CCCNC2)C1 (stereo not shown) the result was -10.85%.

2 of the entries, repeated:

{"structure": "CCc1nc(C2CCCN(c3nccc(N4CCCC4)n3)C2)no1", "stereo": "stereo not shown", "effect": -7.828}
{"structure": "CN(Cc1nc(N)c2ccccc2n1)CC1CCCN1c1cccnn1", "stereo": "stereo not shown", "effect": "13.41 and -2.174 and -0.4074"}

Measurements from “University of Dundee, Small-Polar-MMV Screening Library” (2021), ChEMBL document CHEMBL3988442.